# Results as given in paper PMC11237551, “MRS2 missense variation at Asp216 abrogates inhibitory Mg^2+ binding, potentiating cell migration and apoptosis resistance” (Protein Science : A Publication of the Protein Society, 2024).
# These are yes or no findings as the source states them, for the method shown. Some results given as binding are weak or reduced against the parent protein; the word gives no strength.
# Experiments:
# [1] = molecular target: human MRS2 amino terminal domain, residues 58-333 (MRS2_(58‐333)), wild type (human) (UniProt Q9HD23); test: dynamic light scattering; higher order oligomers seen as larger hydrodynamic radii; 20 mM Tris pH 8, 150 mM NaCl, 1 mM DTT, 20°C, no Mg2+ (1.25 mg/mL in the methods, 2.5 mg/mL in the legend); both purified
# [2] = molecular target: human MRS2 amino terminal domain, residues 58-333, D216Q mutant (MRS2_(58‐333)‐D216Q) (human) (UniProt Q9HD23); test: as above
# [3] = molecular target: human MRS2 amino terminal domain, residues 58-333, D216Q mutant (MRS2_(58‐333)‐D216Q) (human) (UniProt Q9HD23); test: dynamic light scattering; higher order oligomers seen as larger hydrodynamic radii; 20 mM Tris pH 8, 150 mM NaCl, 1 mM DTT, 20°C, with 5 mM MgCl2 (1.25 mg/mL in the methods, 2.5 mg/mL in the legend); both purified
# [4] = molecular target: human MRS2 amino terminal domain, residues 58-333, E261Q mutant (MRS2_(58‐333)‐E261Q) (human) (UniProt Q9HD23); test: condition: only with 5 mM MgCl2 (2.5 mg/mL injected); SEC-MALS; Superdex 200 Increase 10/300 GL, 100 uL injected at 2.5 mg/mL, 20 mM Tris pH 8, 150 mM NaCl, 1 mM DTT, ~10°C, running buffer and sample with 5 mM MgCl2; both purified
binder,measurement,setting,value
"human MRS2 amino terminal domain, residues 58-333 (MRS2_(58‐333)), wild type (domain or fragment, UniProt Q9HD23-1 58-333, looked up, Mitochondrial RNA splicing protein 2 (MRS2), human, amino terminal (matrix) domain, residues 58-333 of NCBI NP_065713.1 (pre-protein numbering); theoretical monomer 32.5 kDa including cloning artifacts; Surmise: E. coli, His tag removed by protease; also called MRS2‐NTD; WT; source: recombinantly expressed and purified, as described previously (Uthayabalan et al., 2023)) DRLRVAGEVHRFRTSDVSQATLASVAPVFTVTKFDKQGNVTSFERKKTELYQELGLQARDLRFQHVMSITVRNNRIIMRMEYLKAVITPECLLILDYRNLNLEQWLFRELPSQLSGEGQLVTYPLPFEFRAIEALLQYWINTLQGKLSILQPLILETLDALVDPKHSSVDRSKLHILLQNGKSLSELETDIKIFKESILEILDEEELLEELCVSKWSDPQVFEKSSAGIDHAEEMELLLENYYRLADDLSNAARELRVLIDDSQSIIFINLDSHRN",binding,[1],binds
"human MRS2 amino terminal domain, residues 58-333, D216Q mutant (MRS2_(58‐333)‐D216Q) (domain or fragment, UniProt Q9HD23-1 58-333, looked up, theoretical monomer 32,517 Da; construct details in Uthayabalan et al., 2023; also called MRS2‐NTD‐D216Q; source: recombinantly expressed and purified as described for MRS2_(58‐333) (Uthayabalan et al., 2023)) DRLRVAGEVHRFRTSDVSQATLASVAPVFTVTKFDKQGNVTSFERKKTELYQELGLQARDLRFQHVMSITVRNNRIIMRMEYLKAVITPECLLILDYRNLNLEQWLFRELPSQLSGEGQLVTYPLPFEFRAIEALLQYWINTLQGKLSILQPLILETLQALVDPKHSSVDRSKLHILLQNGKSLSELETDIKIFKESILEILDEEELLEELCVSKWSDPQVFEKSSAGIDHAEEMELLLENYYRLADDLSNAARELRVLIDDSQSIIFINLDSHRN",binding,[2],binds
same,binding,[3],binds
"human MRS2 amino terminal domain, residues 58-333, E261Q mutant (MRS2_(58‐333)‐E261Q) (domain or fragment, UniProt Q9HD23-1 58-333, looked up, construct details in Uthayabalan et al., 2023; also called MRS2‐NTD‐E261Q; source: recombinantly expressed and purified as described for MRS2_(58‐333) (Uthayabalan et al., 2023)) DRLRVAGEVHRFRTSDVSQATLASVAPVFTVTKFDKQGNVTSFERKKTELYQELGLQARDLRFQHVMSITVRNNRIIMRMEYLKAVITPECLLILDYRNLNLEQWLFRELPSQLSGEGQLVTYPLPFEFRAIEALLQYWINTLQGKLSILQPLILETLDALVDPKHSSVDRSKLHILLQNGKSLSELETDIKIFKESILEILDQEELLEELCVSKWSDPQVFEKSSAGIDHAEEMELLLENYYRLADDLSNAARELRVLIDDSQSIIFINLDSHRN",binding,[4],no binding
